Taken from: PubChem BioAssay AID493246 (Drosophila RNAi Screening Center, 2011)

Test: 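Genome-wide search for dsRNAs that reduce cell number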 (primary screen)
System: Drosophila Kc and S2R+ cells
Reagent: long dsRNA against Drosophila genes
Measurement: 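Cell number per well after knock-down, printed as raw plate values; calls were based on per-plate z-scores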
Reading the numbers: Kc cell number and S2R+ cell number: higher = more cells remaining
Hit rule: 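Counted as a hit if cell number falls by a z-score of at least 3 within its plate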
In all, the deposit lists about 21,000 reagents; below is an unselected part of those that have a named target and a result. In the full data, 429 (2%) were called active. 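Values are raw and not normalised between plates; calls rest on per-plate z-scores that were not deposited.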 Names joined by + are all predicted targets of the reagent. Not stated in the record: the amount of reagent, the time to read-out.

target	dsRNA	Kc cell number, rep 1	Kc cell number, rep 2	S2R+ cell number, rep 1	S2R+ cell number, rep 2	activity call
CG11693	DRSC14353	1.65e6	1.75e6	1.34e6	1.52e6	inactive
CG15646	DRSC19682	1.62e6	1.60e6	1.04e6	1.18e6	inactive
P58IPK	DRSC16404	1.76e6	1.78e6	1.38e6	1.50e6	inactive
Cpr65Ay (Cuticular protein 65Ay)	DRSC08796	1.59e6	1.57e6	1.01e6	1.24e6	inactive
Wnt4 (Wnt oncogene analog 4)	DRSC00976	1.33e6	1.44e6	6.92e5	8.17e5	active
Wnt4 (Wnt oncogene analog 4)	DRSC03477	1.54e6	1.48e6	1.23e6	1.40e6	inactive
CG32833	DRSC04596	1.36e6	1.43e6	1.11e6	1.23e6	inactive
CG12448	DRSC01967	1.47e6	1.58e6	1.27e6	1.41e6	inactive
CG16781	DRSC18117	1.45e6	1.50e6	1.10e6	1.20e6	inactive
CG6403	DRSC16033	1.59e6	1.65e6	9.52e5	1.14e6	inactive
OS9 + Hf	DRSC03392	1.30e6	1.41e6	1.38e6	1.42e6	inactive
NiPp1 (Nuclear inhibitor of Protein phosphatase 1)	DRSC07307	1.43e6	1.51e6	1.13e6	1.20e6	inactive
CG1236	DRSC12203	1.82e6	1.86e6	1.22e6	1.39e6	inactive
Gdi (GDP dissociation inhibitor)	DRSC03330	1.35e6	1.42e6	1.15e6	1.07e6	inactive
alpha-Est9 (alpha-Esterase-9)	DRSC12621	1.47e6	1.58e6	1.23e6	1.25e6	inactive
CG15425	DRSC00440	1.67e6	1.64e6	1.12e6	1.27e6	inactive
CG13917	DRSC08386	1.30e6	1.43e6	1.19e6	1.21e6	inactive
CG7142	DRSC16204	1.32e6	1.30e6	1.04e6	1.12e6	inactive
Or2a (Odorant receptor 2a)	DRSC18690	1.43e6	1.49e6	1.12e6	1.23e6	inactive
Pka-C1 (Protein kinase, cAMP-dependent, catalytic subunit 1)	DRSC03399	1.34e6	1.38e6	1.17e6	1.22e6	inactive
Fancd2	DRSC15208	1.20e6	1.14e6	1.06e6	1.20e6	inactive
Rsph3 (Radial spoke head protein 3)	DRSC09696	1.39e6	1.50e6	1.17e6	1.16e6	inactive
Rsph3 (Radial spoke head protein 3)	DRSC10211	1.37e6	1.62e6	1.16e6	1.25e6	inactive
Unc-115b + p24-2	DRSC16492	1.47e6	1.50e6	1.22e6	1.30e6	inactive
geminin	DRSC04984	1.07e6	1.11e6	1.01e6	1.31e6	active
Pex2 (Peroxin 2)	DRSC10770	1.28e6	1.42e6	1.32e6	1.15e6	inactive
CG17059	DRSC06654	1.60e6	1.62e6	1.35e6	1.46e6	inactive
CG34057	DRSC08375	1.60e6	1.44e6	1.00e6	1.22e6	inactive
arr (arrow)	DRSC07451	1.45e6	1.50e6	1.21e6	1.28e6	inactive
CG14435	DRSC17928	1.26e6	1.39e6	9.29e5	9.51e5	inactive
CG4829	DRSC19920	1.56e6	1.63e6	1.00e6	1.20e6	inactive
CG8952	DRSC20133	6.04e5		9.44e5		inactive
CG42262 (retired record)	DRSC17628	1.13e6	1.46e6	1.00e6	1.06e6	inactive
CG42262 (retired record)	DRSC17974	1.79e6	1.67e6	1.10e6	1.22e6	inactive
Mst57Da (Male-specific RNA 57Da)	DRSC16744	1.66e6	1.84e6	1.02e6	1.18e6	inactive
CycJ (Cyclin J)	DRSC08653	1.38e6	1.47e6	1.14e6	1.19e6	inactive
CG31782 (retired record)	DRSC01554	1.41e6	1.62e6	9.36e5	1.19e6	inactive
CG31782 (retired record)	DRSC01556	1.64e6	1.66e6	9.35e5	1.17e6	inactive
CG3961	DRSC10390	1.57e6	1.64e6	1.21e6	1.23e6	inactive
CG3961	DRSC10391	1.71e6	2.05e6	1.45e6	1.52e6	inactive
Hipk (Homeodomain interacting protein kinase)	DRSC07885	1.37e6	1.38e6	1.01e6	1.17e6	inactive
Hipk (Homeodomain interacting protein kinase)	DRSC08507	1.18e6	1.08e6	9.53e5	1.00e6	inactive
CG7509	DRSC08596	1.45e6	1.52e6	1.36e6	1.31e6	inactive
CG12851	DRSC04131	1.58e6	1.52e6	1.24e6	1.35e6	inactive
CG9646	DRSC07342	1.57e6	1.53e6	1.12e6	1.29e6	inactive
CG8929	DRSC07298	1.40e6	1.45e6	1.20e6	1.21e6	inactive
CG14401	DRSC02385	1.51e6	1.67e6	1.31e6	3.57e5	inactive
Papss (PAPS synthetase)	DRSC11246	1.46e6	1.55e6	1.39e6	1.34e6	inactive
tgo (tango)	DRSC17077	1.40e6	1.50e6	1.21e6	1.29e6	inactive
sev (sevenless)	DRSC20372	1.55e6	1.45e6	1.06e6	1.17e6	inactive
Tsp74F (Tetraspanin 74F)	DRSC10508	1.36e6	1.51e6	1.25e6	1.38e6	inactive
Acbp2 (Acyl-CoA binding protein 2)	DRSC11141	1.60e6	1.43e6	1.10e6	1.21e6	inactive
salto	DRSC06291	1.33e6	1.42e6	1.12e6	1.24e6	inactive
Uba4 (Ubiquitin-like activating enzyme 4)	DRSC02194	1.68e6	1.64e6	1.32e6	1.49e6	inactive
CG15629	DRSC00464	1.51e6	1.41e6	1.12e6	1.22e6	inactive
Adk2 (Adenosine kinase 2)	DRSC09827	1.33e6	1.31e6	1.22e6	9.39e5	inactive
IscU (Iron-sulfur cluster assembly enzyme)	DRSC16572	1.16e6	1.30e6	6.41e5	7.61e5	active
TM9SF3 (Transmembrane 9 superfamily protein member 3)	DRSC09747	1.34e6	1.48e6	1.24e6	1.22e6	inactive
Ggamma30A (G protein gamma subunit 30A)	DRSC02715	1.42e6	1.53e6	1.20e6	1.34e6	inactive
Ggamma30A (G protein gamma subunit 30A)	DRSC03331	1.43e6	1.48e6	1.18e6	1.26e6	inactive

Not a retest: 10 of the entries above.
target	dsRNA	Kc cell number, rep 1	Kc cell number, rep 2	S2R+ cell number, rep 1	S2R+ cell number, rep 2	activity call
tgo (tango)	DRSC17077	1.40e6	1.50e6	1.21e6	1.29e6	inactive
sev (sevenless)	DRSC20372	1.55e6	1.45e6	1.06e6	1.17e6	inactive
Tsp74F (Tetraspanin 74F)	DRSC10508	1.36e6	1.51e6	1.25e6	1.38e6	inactive
Acbp2 (Acyl-CoA binding protein 2)	DRSC11141	1.60e6	1.43e6	1.10e6	1.21e6	inactive
salto	DRSC06291	1.33e6	1.42e6	1.12e6	1.24e6	inactive
Uba4 (Ubiquitin-like activating enzyme 4)	DRSC02194	1.68e6	1.64e6	1.32e6	1.49e6	inactive
CG15629	DRSC00464	1.51e6	1.41e6	1.12e6	1.22e6	inactive
Adk2 (Adenosine kinase 2)	DRSC09827	1.33e6	1.31e6	1.22e6	9.39e5	inactive
IscU (Iron-sulfur cluster assembly enzyme)	DRSC16572	1.16e6	1.30e6	6.41e5	7.61e5	active
TM9SF3 (Transmembrane 9 superfamily protein member 3)	DRSC09747	1.34e6	1.48e6	1.24e6	1.22e6	inactive
